{"sequences": {"note": "Chains of the proteins cited; added tags and fusions are not shown. Residues count along the entry.", "UniProt P12004": "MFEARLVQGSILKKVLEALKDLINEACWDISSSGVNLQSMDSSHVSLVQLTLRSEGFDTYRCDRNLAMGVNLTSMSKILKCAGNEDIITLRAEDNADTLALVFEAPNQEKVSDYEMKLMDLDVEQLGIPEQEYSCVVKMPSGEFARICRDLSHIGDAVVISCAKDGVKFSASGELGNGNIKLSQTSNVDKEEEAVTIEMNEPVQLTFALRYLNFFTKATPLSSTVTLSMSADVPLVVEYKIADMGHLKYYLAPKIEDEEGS", "UniProt P02769, residues 25-607": "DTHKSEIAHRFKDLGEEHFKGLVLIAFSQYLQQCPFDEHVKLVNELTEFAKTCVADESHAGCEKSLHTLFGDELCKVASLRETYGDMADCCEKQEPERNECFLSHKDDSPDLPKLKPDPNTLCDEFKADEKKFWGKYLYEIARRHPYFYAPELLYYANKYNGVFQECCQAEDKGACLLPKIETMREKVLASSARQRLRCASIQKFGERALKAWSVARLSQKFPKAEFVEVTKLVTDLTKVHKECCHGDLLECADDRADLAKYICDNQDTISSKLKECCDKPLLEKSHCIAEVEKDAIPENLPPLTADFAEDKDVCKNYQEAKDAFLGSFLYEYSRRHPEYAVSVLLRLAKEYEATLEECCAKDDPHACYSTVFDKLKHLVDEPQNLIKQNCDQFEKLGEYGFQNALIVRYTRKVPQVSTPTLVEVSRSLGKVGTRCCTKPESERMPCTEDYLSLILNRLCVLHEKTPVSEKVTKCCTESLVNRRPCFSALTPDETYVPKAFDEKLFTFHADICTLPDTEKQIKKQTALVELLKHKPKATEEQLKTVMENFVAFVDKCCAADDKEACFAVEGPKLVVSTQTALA"}, "source": "paper PMC11650725", "key": {"[1]": {"molecular_target": "GFP-PNKP (GFP-tagged polynucleotide kinase-phosphatase, wild type) (human) (UniProt Q96T60)", "assay": "proximity ligation; U2OS cells transfected with GFP or GFP-PNKP 24 h before; fixed with cold MeOH; Duolink PLA with GFP and PCNA antibodies (1:200); no antibody as negative control"}, "[2]": {"molecular_target": "PNKP (polynucleotide kinase-phosphatase), endogenous (human (endogenous in U2OS)) (UniProt Q96T60)", "assay": "proximity ligation; U2OS cells, endogenous proteins; treated or not with FEN1i (10 uM, 1 h), EdU pulse to mark S-phase cells; Duolink PLA with PCNA, PNKP and LIG3 antibodies (1:200); cold MeOH fixation for PCNA/PNKP, 2% PFA otherwise; PNKP antibody alone as negative control"}, "[3]": {"molecular_target": "His-PNKP (purified His-tagged PNKP) (human) (UniProt Q96T60)", "assay": "pull-down; Ni-NTA agarose beads in NETN buffer (20 mM Tris pH 8, 1 mM EDTA, 0.5% IGEPAL CA-630, 500 mM NaCl); 1 ug His-PNKP with 1 ug purified PCNA or 1 ug BSA, 4 C, 1 h; washed 3 times; immunoblot; both purified"}, "[4]": {"molecular_target": "PNKP (polynucleotide kinase-phosphatase), endogenous (human (endogenous in U2OS)) (UniProt Q96T60)", "assay": "proximity ligation; U2OS cells, endogenous proteins; treated or not with FEN1i (10 uM, 1 h), EdU pulse to mark S-phase cells; Duolink PLA with PCNA, PNKP and LIG3 antibodies (1:200); cold MeOH fixation for PCNA/PNKP, 2% PFA otherwise; PNKP antibody alone as negative control", "remark": "listed apart in the source"}}, "note": "Where two headings read alike, the source gives them in different places. These are yes or no findings as the source states them, for the method shown. For some assays here: In cells and extracts the contact can be indirect. Some binding calls cover weakened binding; strength is not graded here.", "data": [{"molecule": "PCNA (proliferating cell nuclear antigen), endogenous (from UniProt P12004 1-261)", "values": [{"measurement": "binding", "setting": "[1]", "value": "binds"}, {"measurement": "binding", "setting": "[2]", "value": "binds"}]}, {"molecule": "bovine serum albumin (from UniProt P02769 25-607)", "values": [{"measurement": "binding", "setting": "[3]", "value": "no binding (tested: 1 ug BSA)"}]}, {"molecule": "purified PCNA (Abnova) (from UniProt P12004 1-261)", "values": [{"measurement": "binding", "setting": "[3]", "value": "binds"}]}, {"molecule": "LIG3 (DNA ligase III), endogenous (enzyme, UniProt P49916 43-1009) LLHGHPLFLRRKPVLSFQGSHLRSRATYLVFLPGLHVGLCSGPCEMAEQRFCVDYAKRGTAGCKKCKEKIVKGVCRIGKVVPNPFSESGGDMKEWYHIKCMFEKLERARATTKKIEDLTELEGWEELEDNEKEQITQHIADLSSKAAGTPKKKAVVQAKLTTTGQVTSPVKGASFVTSTNPRKFSGFSAKPNNSGEAPSSPTPKRSLSSSKCDPRHKDCLLREFRKLCAMVADNPSYNTKTQIIQDFLRKGSAGDGFHGDVYLTVKLLLPGVIKTVYNLNDKQIVKLFSRIFNCNPDDMARDLEQGDVSETIRVFFEQSKSFPPAAKSLLTIQEVDEFLLRLSKLTKEDEQQQALQDIASRCTANDLKCIIRLIKHDLKMNSGAKHVLDALDPNAYEAFKASRNLQDVVERVLHNAQEVEKEPGQRRALSVQASLMTPVQPMLAEACKSVEYAMKKCPNGMFSEIKYDGERVQVHKNGDHFSYFSRSLKPVLPHKVAHFKDYIPQAFPGGHSMILDSEVLLIDNKTGKPLPFGTLGVHKKAAFQDANVCLFVFDCIYFNDVSLMDRPLCERRKFLHDNMVEIPNRIMFSEMKRVTKALDLADMITRVIQEGLEGLVLKDVKGTYEPGKRHWLKVKKDYLNEGAMADTADLVVLGAFYGQGSKGGMMSIFLMGCYDPGSQKWCTVTKCAGGHDDATLARLQNELDMVKISKDPSKIPSWLKVNKIYYPDFIVPDPKKAAVWEITGAEFSKSEAHTADGISIRFPRCTRIRDDKDWKSATNLPQLKELYQLSKEKADFTVVAGDEGSSTTGGSSEENKGPSGSAVSRKAPSKPSASTKKAEGKLSNSNSKDGNMQTAKPSAMKVGEKLATKSSPVKVGEKRKAADETLCQTKVLLDIFTGVRLYLPPSTPDFSRLRRYFVAFDGDLVQEFDMTSATHVLGSRDKNPAAQQVSPEWIWACIRKRRLVAPC", "values": [{"measurement": "binding", "setting": "[4]", "value": "binds"}]}]}
